Laboratory results: PubChem BioAssay AID686938 (Drosophila RNAi Screening Center, 2013)
In all, the deposit lists about 23,000 reagents; shown is an unselected part of those that have a named target and a result. Of all reagents, 75 (0.33%) got an active call. 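Raw plate signals without normalisation; calls rest on plate z-scores that were not deposited; ratio present for only 364 wells.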 A number with no mark means an inactive call. Names joined by + are all predicted targets of the reagent. Reagent sequences are not shown. Not stated in the record: the dose of the treatment.

Aim: 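Knock-downs reducing store-operated calcium influx in Drosophila cells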 (primary screen)
Cell system: Drosophila S2R+ cells
Knock-down reagent: long dsRNA against Drosophila genes, about 0.25 µg dsRNA per well, roughly 10,000 cells
Time to read-out: 5 days of knock-down before the calcium assay
Treatment: thapsigargin (SERCA pump blocker) to empty calcium stores; entry signal taken 4 min after adding it
Read-out: 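Per-well fluo-4 fluorescence in two replicates, unnormalised, measured in resting cells and 4 min after store depletion by the SERCA blocker thapsigargin; ratio of the two present in few wells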
Scale: calcium entry signal: higher = stronger calcium signal after store depletion; entry to resting ratio: higher = more calcium entry relative to resting level; resting calcium signal: higher = higher resting calcium signal
Call rule: 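Called when the plate z-score of the entry-to-rest ratio, mean of duplicates, falls below −3; wells with low overall dye signal (Fmax z below −2) or more than five off-targets excluded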
Calls: active = strongly reduced calcium entry; inactive = no strong reduction

| target | dsRNA | calcium entry signal, replicate 1 (fluorescence units) | calcium entry signal, replicate 2 (fluorescence units) | entry to resting ratio | resting calcium signal, replicate 1 (fluorescence units) | resting calcium signal, replicate 2 (fluorescence units) |
| --- | --- | --- | --- | --- | --- | --- |
| CG4593 | DRSC18374 | 3.15e7 | 3.57e7 | – | 1.66e7 | 1.84e7 |
| Glut1 (Glucose transporter 1) | DRSC07927 | 2.85e7 | 2.50e7 | – | 1.36e7 | 1.25e7 |
| Glut1 (Glucose transporter 1) | DRSC08378 | 1.84e7 | 2.79e7 | – | 9.94e6 | 1.32e7 |
| Glut1 (Glucose transporter 1) | DRSC08662 | 2.65e7 | 2.39e7 | – | 1.25e7 | 1.14e7 |
| CG42726 + CG42727 | DRSC14485 | 3.96e7 | 4.72e7 | – | 1.69e7 | 1.95e7 |
| CG14332 | DRSC14811 | 3.98e7 | 5.64e7 | – | 1.93e7 | 7.18e7 |
| bt (bent) | DRSC17129 | 4.26e7 | 4.29e7 | – | 1.94e7 | 1.98e7 |
| bt (bent) | DRSC17171 | 3.77e7 | 4.13e7 | – | 1.83e7 | 1.95e7 |
| dany (distal antenna-young) | DRSC04141 | 4.52e7 | 5.00e7 | – | 2.19e7 | 2.29e7 |
| Rx (Retinal Homeobox) | DRSC03837 | 3.79e7 | 5.08e7 | – | 1.72e7 | 2.00e7 |
| Rx (Retinal Homeobox) | DRSC04652 | 4.49e7 | 4.28e7 | – | 1.98e7 | 1.85e7 |
| NPFR (Neuropeptide F receptor) | DRSC12173 | 4.35e7 | 4.61e7 | – | 2.11e7 | 2.13e7 |
| CG30291 | DRSC03842 | 3.46e7 | 6.16e7 | – | 1.61e7 | 2.53e7 |
| phu (phurba tashi) | DRSC16390 | 3.39e7 | 2.95e7 | – | 1.71e7 | 1.56e7 |
| PGRP-LC (Peptidoglycan recognition protein LC) | DRSC08980 | 6.12e7 | 4.04e7 | – | 3.12e7 | 1.84e7 |
| PGRP-LC (Peptidoglycan recognition protein LC) | DRSC10416 | 1.53e7 | 1.99e7 | – | 8.24e6 | 9.85e6 |
| PGRP-LC (Peptidoglycan recognition protein LC) | DRSC10417 | 1.59e7 | 1.97e7 | – | 8.77e6 | 9.88e6 |
| Mer (Merlin) | DRSC20259 | 2.75e7 | 2.34e7 | – | 1.63e7 | 1.15e7 |
| CG13272 | DRSC02249 | 4.08e7 | 2.49e7 | – | 1.90e7 | 1.35e7 |
| CG13272 | DRSC22910 | 3.61e7 | 3.75e7 | – | 2.20e7 | 1.81e7 |
| Ekar (Eye-enriched kainate receptor) | DRSC17161 | 5.48e7 | 6.03e7 | 2.3 | 2.41e7 | 2.57e7 |
| Atg6 (Autophagy-related 6) | DRSC15798 | 3.65e7 | 3.64e7 | – | 1.85e7 | 1.61e7 |
| Cnep1r1 (CTD nuclear envelope phosphatase 1 regulatory subunit 1) | DRSC20620 | 4.75e7 | 3.67e7 | – | 2.23e7 | 1.61e7 |
| CG42613 | DRSC13332 | 3.28e7 | 2.79e7 | – | 1.70e7 | 1.34e7 |
| CG42613 | DRSC14769 | 1.18e7 | 2.27e7 | – | 3.09e7 | 1.04e7 |
| CG42613 | DRSC15802 | 2.37e7 | 2.03e7 | – | 1.03e7 | 8.80e6 |
| CG42613 | DRSC22613 | 3.84e7 | 3.44e7 | – | 2.14e7 | 1.73e7 |
